Measured values from patent US20220160802A1, “METHODS AND COMPOSITIONS FOR PROMOTING HEALTH IN A SUBJECT” (COMMONWEALTH SCIENTIFIC AND INDUSTRIAL RESEARCH ORGANISATION, priority 2019, published 2022).

assay: Untargeted LC-MS metabolite analysis of fermented and non-fermented broccoli puree; conditions: fermented vs non-fermented broccoli puree

Row | Compound | FC
1 | 2-carboxy-L-threo-pentonate | 2.0447
2 | C/C(=C\CNc1ncnc2c1ncn2[C@@H]1O[C@H](CO)[C@@H](O)[C@H]1O)CO (relative stereo) [trans-zeatin riboside] | 0.4045
3 | O=C(/C=C/c1ccc(O)c(O)c1)O[C@@H]1[C@H](O)C[C@@](O)(C(=O)O)C[C@H]1OC(=O)/C=C/c1ccc(O)c(O)c1 (stereo in doubt) [3,4-Dicaffeoylquinic acid] | 2.7368
4 | CSCCCCCCCC=[N+]([O-])O [1-aci-nitro-8-methylsulfanyloctane] | 8.8356
5 | Nc1nc(NC2O[C@H](COP(=O)(O)O)[C@@H](O)[C@H]2O)c(N)c(=O)[nH]1 (stereo partly drawn) [2,5-diamino-6-5-phospho-D-ribosylaminopyrimidin-43H-one] | 0.3594
6 | CCCC(C/C(=C/C(=O)O)C(=O)O)SC (stereo not shown) [2-2′-methylthiopentylmaleate] | 14.621
7 | CSCCCCC(O)(CC(=O)O)C(=O)O (stereo not shown) [2-4′-methylthiobutylmalate] | 0.4362
8 | CSCCCCCCCC(O)(CC(=O)O)C(=O)O (stereo not shown) [2-7′-methylthioheptylmalate] | 0.1968
9 | O=C(O)c1ccccc1O [2-Hydroxybenzoic acid] | 2.1338
10 | C=C(N)C(=O)O [2-aminoprop-2-enoate] | 2.0003
11 | O=C(O)[C@@](O)(COP(=O)(O)O)[C@H](O)[C@H](O)CO [2-carboxy-D-arabinitol 1-phosphate] | 41.06
12 | CC1=CC(=O)CC(C)(C)C1(O)/C=C/C(C)=C\C(=O)O (stereo not drawn) [2-cis-abscisate] | 76.81
13 | CSCCC(=O)C(O)=COP(=O)(O)O [2-hydroxy-5-methylthio-3-oxopent-1-enyl 1-phosphate] | 13.56
14 | C/C(=C\Cc1cc(O)cc(C)c1O)CCCC(C)CCCC(C)CCCC(C)C (stereo not shown) [2-methyl-6-phytyl-1,4-benzoquinol] | 3.3442
15 | O=C(O)CC(=O)OC[C@H]1OC(Oc2ccc3ccccc3c2)[C@H](O)[C@@H](O)[C@@H]1O (stereo partly shown) [2-naphthol 6′-O-malonylglucoside] | 0.3064
16 | Oc1ccc2ccccc2c1 [2-naphthol] | 3.6366
17 | O=C(O)[C@@H](CO)OP(=O)(O)O [2-phospho-D-glycerate] | 5.0613
18 | O=C1C[C@@H](c2ccc(O)cc2)Oc2cc(O)cc(O)c21 [2S-naringenin] | 0.3035
19 | COc1cc(/C=C/C(=O)OC2CC(O)(C(=O)O)CC(O)C2OC(=O)/C=C/c2ccc(O)c(OC)c2)ccc1O (stereo not shown) [3,4-Diferuloylquinic acid] | 5.2839
20 | COc1cc(/C=C/C(=O)O[C@@H]2C[C@@](O)(C(=O)O)C[C@@H](O)[C@@H]2O)ccc1O [3-Feruloylquinic acid] | 3.3496
21 | COc1ccc(-c2oc3c(OC)c(OC)c(OC)c(OC)c3c(=O)c2OC)cc1OC [3-Methoxynobiletin] | 8.9717
22 | COc1ccc(-c2oc3cc(OC)c(OC)c(OC)c3c(=O)c2OC)cc1OC [3-Methoxysinensetin] | 2.4046
23 | CC(C)[C@H](C)[C@@H](O)[C@H](O)[C@@H](C)[C@H]1CC[C@H]2[C@@H]3CC(=O)[C@H]4CC(=O)CC[C@]4(C)[C@H]3CC[C@]12C [3-dehydroteasterone] | 8.985

Row | Compound | FC
24 | O=C(O)[C@@]1(O)C[C@@H](O)[C@@H](O)[C@@H]([C@H](O)CO)O1 [3-deoxy-alpha-D-manno-octulosonate] | 6.6012
25 | CSCCCCC(C(=O)C(=O)O)C(C)C (stereo not shown) [3-isopropyl-7-methylthio-2-oxoheptanoate] | 0.3029
26 | C=C1C(=O)O[C@@H]2[C@H]3O[C@]3(C)[C@@H](O)C/C=C(\C)CC[C@@H]12 [3beta-hydroxyparthenolide] | 8.1691
27 | O=c1cc(O)c2ccccc2o1 [4-Hydroxycoumarin] | 0.4821
28 | O=C(O)/C=C/C(=O)CC(=O)CC(=O)O [4-fumaryl-acetoacetate] | 5.0298
29 | CC(C)CC(=O)C(=O)O [4-methyl-2-oxopentanoate] | 3.906
30 | CSCCCC/C(=N/OS(=O)(=O)O)S[C@@H]1O[C@H](CO)[C@@H](O)[C@H](O)[C@H]1O [4-methylthiobutyl glucosinolate] | 14.183
31 | Cc1cc(=O)oc2cc(O[C@@H]3O[C@H](COC(=O)CC(=O)O)[C@@H](O)[C@H](O)[C@H]3O)ccc12 [4-methylumbelliferone 6′-O-malonylglucoside] | 30.436
32 | C=C(CC[C@@H](C)[C@H]1CC[C@@]2(C)[C@@H]3CC[C@H]4[C@](C)(C=O)[C@@H](O)CC[C@@]45C[C@@]35CC[C@]12C)C(C)C [4alpha-formyl,4beta,14alpha-dimethyl-9beta,19-cyclo-5alpha-ergost-24241-en-3beta-ol] | 18.8
33 | C/C=C(/CC[C@@H](C)[C@H]1CC[C@H]2C3=CC[C@H]4[C@H](C=O)[C@@H](O)CC[C@]4(C)[C@H]3CC[C@]12C)C(C)C [4alpha-formyl-stigmasta-7,24241-dien-3beta-ol] | 58.691
34 | CC(C)(COP(=O)(O)O)[C@@H](O)C(=O)NCCC(=O)NCCS [4′-phosphopantetheine] | 11.775
35 | O=C(O)c1cc2cc(O)c(O)cc2[nH]1 [5,6-dihydroxyindole-2-carboxylate] | 5.2663
36 | NC(=O)c1ncn(C2O[C@H](COP(=O)(O)O)[C@@H](O)[C@H]2O)c1NC=O (stereo partly drawn) [5-formamido-1-5-phospho-D-ribosyl-imidazole-4-carboxamide] | 30.585
37 | Nc1nc(=O)n([C@@H]2O[C@H](COP(=O)(O)O)[C@@H](O)[C@H]2O)cc1O [5-hydroxy-CMP] | 25.864
38 | CSCCCCCC(S)=NO [5-methylthiopentyl-thiohydroximate] | 0.302
39 | CSCCCCCC(=NOS(=O)(=O)O)S[C@@H]1O[C@H](CO)[C@@H](O)[C@H](O)[C@H]1O [5-methylthiopentylglucosinolate] | 59.335
40 | CC(O)[C@@H](O)[C@@H](O)C(=S)COP(=O)(O)O (stereo partly shown) [5-methylthioribulose 1-phosphate] | 46.001
41 | O=P(O)(O)OC[C@H]1O[C@H](OP(=O)(O)OP(=O)(O)O)[C@H](O)[C@@H]1O [5-phospho-alpha-D-ribose 1-diphosphate] | 0.4783
42 | N[C@@H]1O[C@H](COP(=O)(O)O)[C@@H](O)[C@H]1O [5-phospho-beta-D-ribosylamine] | 10.643
43 | Nc1c(C(=O)N[C@@H](CC(=O)O)C(=O)O)ncn1[C@@H]1O[C@H](COP(=O)(O)O)[C@@H](O)[C@H]1O [5′-phosphoribosyl-4-N-succinocarboxamide-5-aminoimidazole] | 0.4281
44 | C[C@@H]1O[C@@H](Oc2cc3oc(-c4ccc(O)c(O)c4)cc(=O)c3c(O)c2O)[C@H](O)[C@H](O)[C@H]1O [6-Hydroxyluteolin 7-O-rhamnoside] | 2.142
45 | COc1cc2c(cc1O)C(Cc1ccc(O)c(O)c1)NCC2 (stereo not shown) [6-O-methylnorlaudanosoline] | 0.05573
46 | CSCCCCCCC(S)=NO [6-methylthiohexyl-thiohydroximate] | 5.5473

Row | Compound | FC
47 | O=C1O[C@H](COP(=O)(O)O)[C@@H](O)[C@H](O)[C@H]1O [6-phospho D-glucono-1,5-lactone] | 5.8171
48 | CC(C)[C@H](C)[C@@H](O)[C@H](O)[C@@H](C)[C@H]1CC[C@H]2[C@@H]3C[C@H](O)[C@H]4C[C@H](O)[C@H](O)C[C@]4(C)[C@H]3CC[C@]12C [6alpha-hydroxy-castasterone] | 3.7782
49 | CC(=O)OC[C@H]1O[C@@H](Oc2ccc3c(=O)c(-c4ccc(O)cc4)coc3c2)[C@H](O)[C@@H](O)[C@@H]1O [6″-O-Acetyldaidzin] | 0.158
50 | COc1cc2c(=O)c(-c3ccc(O)cc3)coc2cc1O[C@@H]1O[C@H](COC(=O)CC(=O)O)[C@@H](O)[C@H](O)[C@H]1O [6″-O-Malonylglycitin] | 0.1674
51 | COc1cc(C[C@H]2C(=O)OC[C@@H]2[C@H](O)c2ccc(O)c(OC)c2)ccc1O [7-Hydroxymatairesinol] | 2.0626
52 | CSCCCCCCCC(=NOS(=O)(=O)O)S[C@@H]1O[C@H](CO)[C@@H](O)[C@H](O)[C@H]1O [7-methylthioheptyl glucosinolate] | 0.4242
53 | C[S+]([O-])CCCCCCCCC(=NOS(=O)(=O)O)S[C@@H]1O[C@H](CO)[C@@H](O)[C@H](O)[C@H]1O (stereo partly shown) [8-methylsulfinyloctyl glucosinolate] | 0.1694
54 | CSCCCCCCCCC(S)=NO [8-methylthiooctyl-thiohydroximate] | 0.2826
55 | Nc1nc2c([nH]c(=O)n2[C@@H]2O[C@H](COP(=O)(O)O)[C@@H](O)[C@H]2O)c(=O)[nH]1 [8-oxo-GMP] | 9.8883
56 | CSCCCCCCCCCC(S)=NO [9-methylthiononyl-thiohydroximate] | 15.416
57 | CSCCCCCCCCC(=O)C(=O)O [10-methylthio-2-oxodecanoate] | 4.5655
58 | O=C(O)CCCCCCCCCCCCCCCCCO [18-hydroxystearate] | 0.1452
59 | CC(C)[C@@H](C)[C@@H](O)[C@H](O)[C@@H](C)[C@H]1CC[C@H]2[C@@H]3CC=C4C[C@@H](O)CC[C@]4(C)[C@H]3CC[C@]12C [22R,23R-22,23-dihydroxycampesterol] | 2.0564
60 | CC(C)[C@H](C)C[C@H](O)[C@@H](C)[C@H]1CC[C@H]2[C@@H]3CCC4=CC(=O)CC[C@]4(C)[C@H]3CC[C@]12C [22alpha-hydroxy-campest-4-en-3-one] | 0.3267
61 | C[C@H](CCC=C1CC1)[C@H]1CC[C@H]2C3=C(CC[C@]12C)[C@@]1(C)CC[C@H](O)C[C@@H]1CC3 [26,27-dehydrozymosterol] | 14.846
62 | Nc1ncnc2c1ncn2[C@@H]1O[C@H](COP(=O)(O)O)[C@@H](O)[C@H]1O [AMP] | 2.1939
63 | COc1cc(C[C@H]2COC[C@@H]2Cc2ccc(O)c(OC)c2)ccc1O [Anhydro-secoisolariciresinol] | 2.3975
64 | O=C(O)CC(=O)OC[C@H]1O[C@@H](Oc2cc(O)c3c(=O)cc(-c4ccc(O)cc4)oc3c2)[C@H](O[C@@H]2OCC(O)(CO)[C@H]2O)[C@@H](O)[C@@H]1O (stereo partly shown) [Apigenin 7-O-6″-malonyl-apiosyl-glucoside] | 0.3809
65 | O=C(O)c1ccccc1 [Benzoic acid] | 4670.1
66 | COc1ccc(-c2coc3cc(O)cc(O)c3c2=O)cc1 [Biochanin A] | 2.1017
67 | C[N+](C)(C)CCOP(=O)(O)OP(=O)([O-])OC[C@H]1O[C@@H](n2ccc(N)nc2=O)[C@H](O)[C@@H]1O [CDP-choline] | 617.84
